Test results reported in article PMC12607013.
Residue numbers refer to the chain shown, from its start. Results are given in words; binding and its absence hold for the method and conditions named. Binding seen in cells or lysates may run through a third protein. Some binding calls cover weakened binding; strength is not graded here. Where a sequence is shown, tags or fusion partners need not be part of it.

Protein sequences, listed by entry. Tags and fused reporters are not part of them.
UniProt Q93009: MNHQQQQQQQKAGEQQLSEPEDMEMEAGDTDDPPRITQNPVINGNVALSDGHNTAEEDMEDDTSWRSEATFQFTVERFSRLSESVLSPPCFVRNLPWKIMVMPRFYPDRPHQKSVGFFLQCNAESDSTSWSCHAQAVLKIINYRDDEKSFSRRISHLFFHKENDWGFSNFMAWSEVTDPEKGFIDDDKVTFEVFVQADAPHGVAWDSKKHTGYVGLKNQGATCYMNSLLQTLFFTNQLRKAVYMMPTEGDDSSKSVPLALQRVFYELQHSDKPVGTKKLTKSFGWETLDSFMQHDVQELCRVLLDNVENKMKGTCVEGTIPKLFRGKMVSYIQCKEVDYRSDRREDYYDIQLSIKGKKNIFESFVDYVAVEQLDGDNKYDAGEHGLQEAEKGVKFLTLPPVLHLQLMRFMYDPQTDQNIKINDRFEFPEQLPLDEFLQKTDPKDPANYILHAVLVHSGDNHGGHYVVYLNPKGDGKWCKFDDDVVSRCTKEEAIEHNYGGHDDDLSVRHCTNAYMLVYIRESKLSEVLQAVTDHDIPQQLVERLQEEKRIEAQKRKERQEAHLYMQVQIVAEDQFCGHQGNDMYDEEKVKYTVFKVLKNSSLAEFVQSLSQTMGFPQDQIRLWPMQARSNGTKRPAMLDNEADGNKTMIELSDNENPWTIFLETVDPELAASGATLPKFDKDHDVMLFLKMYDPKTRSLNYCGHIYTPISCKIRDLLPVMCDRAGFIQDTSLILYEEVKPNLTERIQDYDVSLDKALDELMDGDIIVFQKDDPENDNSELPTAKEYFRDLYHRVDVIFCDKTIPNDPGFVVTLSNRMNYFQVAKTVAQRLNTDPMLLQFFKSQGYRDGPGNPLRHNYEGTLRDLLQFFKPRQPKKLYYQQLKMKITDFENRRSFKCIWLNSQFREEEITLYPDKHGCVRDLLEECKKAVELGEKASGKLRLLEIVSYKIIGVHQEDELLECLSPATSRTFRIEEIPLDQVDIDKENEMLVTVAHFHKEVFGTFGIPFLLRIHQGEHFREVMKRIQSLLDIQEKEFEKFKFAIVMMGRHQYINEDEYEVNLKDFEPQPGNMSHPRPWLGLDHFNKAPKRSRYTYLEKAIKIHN

Columns and labels:
[1] = molecular target: T1, FLAG-tagged full-length OTUD4 H148A (histidine-to-alanine substitution control) (human) (UniProt Q01804); assay: co-IP; HEK293T cells transfected with the indicated plasmids, 48 to 72 h; clarified lysates incubated overnight at 4 °C with anti-FLAG M2-agarose or anti-HA-agarose beads; Western blot
T1 sequence: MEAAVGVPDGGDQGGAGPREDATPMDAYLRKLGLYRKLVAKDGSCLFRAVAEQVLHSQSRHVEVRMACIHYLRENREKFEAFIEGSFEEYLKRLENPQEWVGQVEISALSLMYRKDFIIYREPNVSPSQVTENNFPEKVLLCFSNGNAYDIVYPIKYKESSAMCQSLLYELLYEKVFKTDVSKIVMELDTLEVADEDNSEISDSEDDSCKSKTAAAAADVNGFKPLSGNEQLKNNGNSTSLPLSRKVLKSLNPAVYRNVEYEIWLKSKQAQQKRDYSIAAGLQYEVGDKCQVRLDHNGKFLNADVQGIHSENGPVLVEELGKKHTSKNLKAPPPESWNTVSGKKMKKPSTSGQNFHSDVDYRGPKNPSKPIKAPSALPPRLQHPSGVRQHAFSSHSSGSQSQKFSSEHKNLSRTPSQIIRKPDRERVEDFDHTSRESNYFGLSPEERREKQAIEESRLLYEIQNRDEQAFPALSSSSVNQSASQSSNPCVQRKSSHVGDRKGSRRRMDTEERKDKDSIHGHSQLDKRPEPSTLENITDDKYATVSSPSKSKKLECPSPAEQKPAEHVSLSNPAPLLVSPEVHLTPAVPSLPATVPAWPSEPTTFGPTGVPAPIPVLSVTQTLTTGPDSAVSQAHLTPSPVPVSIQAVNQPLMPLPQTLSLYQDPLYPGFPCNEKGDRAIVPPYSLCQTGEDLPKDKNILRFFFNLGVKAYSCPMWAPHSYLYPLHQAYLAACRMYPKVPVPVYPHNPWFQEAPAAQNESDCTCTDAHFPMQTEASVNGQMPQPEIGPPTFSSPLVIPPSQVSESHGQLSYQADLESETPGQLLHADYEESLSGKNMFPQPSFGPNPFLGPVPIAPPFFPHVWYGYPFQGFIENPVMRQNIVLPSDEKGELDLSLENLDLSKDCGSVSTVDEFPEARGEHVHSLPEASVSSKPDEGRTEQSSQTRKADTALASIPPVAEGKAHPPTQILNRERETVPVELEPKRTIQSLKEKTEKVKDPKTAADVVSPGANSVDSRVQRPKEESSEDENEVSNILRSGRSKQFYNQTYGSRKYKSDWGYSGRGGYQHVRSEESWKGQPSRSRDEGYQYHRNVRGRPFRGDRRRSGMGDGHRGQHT

[2] = molecular target: T2, FLAG-tagged full-length OTUD4 H148Y (tumor-associated variant) (human) (UniProt Q01804); assay: as above
T2 sequence: T1 sequence with A148Y

USP7 (from UniProt Q93009 1-1102) (enzyme)
binding [1]: binds
binding [2]: binds
